Results are given in words; binding and its absence hold for the method and conditions named. Binding seen in cells or lysates may run through a third protein. Some results given as binding are weak or reduced against the parent protein; the word gives no strength.
Tests used:
[1] = biological target: STING R284S-HA (human) (UniProt Q86WV6); experiment: co-IP
[2] = biological target: STING V155M-HA (human) (UniProt Q86WV6); experiment: co-IP

Sequences of proteins named here, by UniProt entry; tags and fusion partners are left off. A change or cut given only in a name is not applied to a line headed by its entry.
UniProt Q86WV6, whole entry, looked up, stated change not applied: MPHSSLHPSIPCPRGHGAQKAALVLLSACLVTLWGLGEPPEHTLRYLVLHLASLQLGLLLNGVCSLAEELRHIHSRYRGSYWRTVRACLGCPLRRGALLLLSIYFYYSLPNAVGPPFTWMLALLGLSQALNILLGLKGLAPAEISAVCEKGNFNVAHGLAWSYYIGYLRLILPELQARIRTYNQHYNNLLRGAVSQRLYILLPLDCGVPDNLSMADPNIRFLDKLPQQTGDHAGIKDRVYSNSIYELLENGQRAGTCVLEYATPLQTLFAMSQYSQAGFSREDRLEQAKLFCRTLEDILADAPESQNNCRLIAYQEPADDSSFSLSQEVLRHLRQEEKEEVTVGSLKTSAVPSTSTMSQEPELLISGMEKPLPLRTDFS
UniProt Q8NEZ2, whole entry: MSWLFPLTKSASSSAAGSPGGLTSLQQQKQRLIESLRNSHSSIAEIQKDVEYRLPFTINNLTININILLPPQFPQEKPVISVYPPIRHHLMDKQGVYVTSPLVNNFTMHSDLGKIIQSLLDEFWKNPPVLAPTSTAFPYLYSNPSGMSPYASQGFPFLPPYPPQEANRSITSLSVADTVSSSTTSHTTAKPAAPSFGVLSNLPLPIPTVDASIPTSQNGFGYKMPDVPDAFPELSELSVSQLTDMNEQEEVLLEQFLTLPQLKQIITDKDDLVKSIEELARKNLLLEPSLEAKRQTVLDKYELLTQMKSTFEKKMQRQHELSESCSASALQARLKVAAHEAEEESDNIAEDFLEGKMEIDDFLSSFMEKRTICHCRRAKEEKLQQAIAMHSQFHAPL
UniProt O14964, whole entry: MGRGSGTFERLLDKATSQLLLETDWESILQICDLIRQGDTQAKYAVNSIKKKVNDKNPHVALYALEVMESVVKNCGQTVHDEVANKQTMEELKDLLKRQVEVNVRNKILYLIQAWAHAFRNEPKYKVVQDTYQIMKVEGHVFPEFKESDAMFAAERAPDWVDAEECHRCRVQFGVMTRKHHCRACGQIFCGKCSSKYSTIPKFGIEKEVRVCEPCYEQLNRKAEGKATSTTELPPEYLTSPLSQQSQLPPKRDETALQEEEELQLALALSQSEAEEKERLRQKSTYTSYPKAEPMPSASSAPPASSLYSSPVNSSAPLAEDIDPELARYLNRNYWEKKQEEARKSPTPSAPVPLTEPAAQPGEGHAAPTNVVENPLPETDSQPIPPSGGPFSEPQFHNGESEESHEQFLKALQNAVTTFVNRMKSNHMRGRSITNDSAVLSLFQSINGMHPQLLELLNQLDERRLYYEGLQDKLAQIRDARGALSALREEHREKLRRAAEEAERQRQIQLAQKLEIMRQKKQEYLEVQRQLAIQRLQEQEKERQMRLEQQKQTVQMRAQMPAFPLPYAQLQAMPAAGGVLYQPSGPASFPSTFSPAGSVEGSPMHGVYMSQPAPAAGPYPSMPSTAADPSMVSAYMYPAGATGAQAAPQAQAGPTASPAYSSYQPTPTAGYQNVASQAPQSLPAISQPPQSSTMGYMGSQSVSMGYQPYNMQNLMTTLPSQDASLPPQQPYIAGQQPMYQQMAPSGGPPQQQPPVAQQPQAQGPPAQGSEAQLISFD

Substance | binding [1] | binding [2]
mScarlet-VPS37A (from UniProt Q8NEZ2 1-397) | binds | binds
mScarlet-HGS (from UniProt O14964 1-777) | binds | binds
